Results taken from paper PMC7804152, “Structural basis for the multi-activity factor Rad5 in replication stress tolerance”.
These are yes or no findings as the source states them, for the method shown. Some binding calls cover weakened binding; strength is not graded here. For part of these data: Where a sequence is shown, tags or fusion partners need not be part of it.

Chains of the proteins cited; added tags and fusions are not shown.
UniProt P15873: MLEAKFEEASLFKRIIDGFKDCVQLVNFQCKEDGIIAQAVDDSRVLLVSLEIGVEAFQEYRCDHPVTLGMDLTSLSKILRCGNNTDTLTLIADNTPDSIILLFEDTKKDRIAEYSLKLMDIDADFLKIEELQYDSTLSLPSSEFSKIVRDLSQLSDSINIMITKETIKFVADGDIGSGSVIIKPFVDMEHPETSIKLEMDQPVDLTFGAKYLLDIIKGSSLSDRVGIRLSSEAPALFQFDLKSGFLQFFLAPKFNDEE

How the values were obtained:
[1] = target: PCNA, yeast two-hybrid fusion (UniProt P15873); test: two-hybrid; Gal4 activation-domain and DNA-binding-domain plasmids in reporter strains; growth on SC-Trp-Leu-His with or without 3 mM 3-amino-1,2,4-triazole
[2] = target: KlRad5 (K. lactis Rad5 residues 163–1114) (K. lactis) (UniProt Q6CJM4); test: dynamic light scattering; KlRad5 at 1 mg/ml, 25 °C, 20 mM Tris pH 7.5, 200 mM sodium chloride, 2 mM DTT; read with the crystal structure and negative-stain EM; both purified

binding [1] | binding [2] | Binder
binds |  | ScRad5 (S. cerevisiae Rad5), yeast two-hybrid fusion (protein, UniProt P32849 1-1169) MSHIEQEERKRFFNDDLDTSETSLNFKSENKESFLFANSHNDDDDDVVVSVSDTTEGEGDRSIVPVRREIEEEGQNQFITELLRIIPEMPKDLVMELNEKFGSQEEGLSLALSHYFDHNSGTSISKIPSSPNQLNTLSDTSNSTLSPSSFHPKRRRIYGFRNQTRLEDKVTWKRFIGALQVTGMATRPTVRPLKYGSQMKLKRSSEEISATKVYDSRGRKKASMASLVRIFDIQYDREIGRVSEDIAQILYPLLSSHEISFEVTLIFCDNKRLSIGDSFILQLDCFLTSLIFEERNDGESLMKRRRTEGGNKREKDNGNFGRTLTETDEELESRSKRLALLKLFDKLRLKPILDEQKALEKHKIELNSDPEIIDLDNDEICSNQVTEVHNNLRDTQHEEETMNLNQLKTFYKAAQSSESLKSLPETEPSRDVFKLELRNYQKQGLTWMLRREQEFAKAASDGEASETGANMINPLWKQFKWPNDMSWAAQNLQQDHVNVEDGIFFYANLHSGEFSLAKPILKTMIKGGILSDEMGLGKTVAAYSLVLSCPHDSDVVDKKLFDIENTAVSDNLPSTWQDNKKPYASKTTLIVVPMSLLTQWSNEFTKANNSPDMYHEVYYGGNVSSLKTLLTKTKTPPTVVLTTYGIVQNEWTKHSKGRMTDEDVNISSGLFSVNFYRIIIDEGHNIRNRTTVTSKAVMALQGKCKWVLTGTPIINRLDDLYSLVKFLELDPWRQINYWKTFVSTPFESKNYKQAFDVVNAILEPVLLRRTKQMKDKDGKPLVELPPKEVVIKRLPFSKSQDLLYKFLLDKAEVSVKSGIARGDLLKKYSTILVHILRLRQVCCHPGLIGSQDENDEDLSKNNKLVTEQTVELDSLMRVVSERFDNSFSKEELDAMIQRLKVKYPDNKSFQSLECSICTTEPMDLDKALFTECGHSFCEKCLFEYIEFQNSKNLGLKCPNCRNQIDACRLLALVQTNSNSKNLEFKPYSPASKSSKITALLKELQLLQDSSAGEQVVIFSQFSTYLDILEKELTHTFSKDVAKIYKFDGRLSLKERTSVLADFAVKDYSRQKILLLSLKAGGVGLNLTCASHAYMMDPWWSPSMEDQAIDRLHRIGQTNSVKVMRFIIQDSIEEKMLRIQEKKRTIGEAMDTDEDERRKRRIEEIQMLFE
 | no binding (tested: 1 mg/ml) | KlRad5 (K. lactis Rad5 residues 163–1114) (domain or fragment, UniProt Q6CJM4 163-1114) ESPMSSDKGRNRWSRYIGSIHTMGFATRPTVKPVPIGSRLGFKKSVPKDLPLGKSLQHQHCSHLVRLIDTSQDRELGRMPEDVARILYPLLDYSEQVSLEPYLLINNGKRFSVGDNIYIRIDCYLTSQAFVRIEGGSILNKSFINDHGMDTRQLHRAGAIMALFDAINIQPVYGDTKNEMIPNYQENTVSSSQFQDEALNINQLKSFYRITQSAASLQNLPETTPDESLFKLQLRRYQKQSLSWMLKREYEYSHLSEKAAEVSIDGNSMNPLWKKFRWPSNSKQGTPNHEDDCFFYANLYTGEFSIEKPVIKTIINGGILADEMGLGKTISALALICTASYDEAHEKKIESTKKPSMKEMSSQVDSSPLRHSQHKHDTYAYRTTLIVVPMSLLNQWQSEFEKANKDLKKRCEIYYGNNIKDLRAYVLGPNAPSVIITTYGIIQSEYGRTSTSGLFNVVFFRIILDEGHTIRNRSTRTSKAVIALRSSRKWILTGTPIINRLDDLFSLVQFLNLEPWSHINYWKRYVSVPFEKGNYAQAFDVINAVLEPVLLRRTKNMKDVDGKPLVSLPPKEVIVEKLQLSSSEKRVYQSMLEDAENSVKEGLAKGDLLKNYTNILVHILRLRQVCCHLDLLKKTPDLGDPDLEDLENSTQNISSILMPKNIKSPKSSISQDKLDALSANFRDIHSASEQLPSFECAICTTECIEPLSAVSITECLHTFCEPCLAEYIEFQQNKKLSINCPYCRMPISEANVLKLKEPIDAERGYELISFHSHFQSTKIKALLRHLKQIQETSPGEQIIVFSQFSSFLDILEIELRSHLPRDQVIIYKFDGRLDMKERTRILEQFHDKDLSCIKLLLLSLKTGGVGLNLTCASRAFMMDPWWSPGMEDQAIDRIHRIGQQQTVKVVRFIIDNSVEEKMLRIQERKRMLGDIVEGDEAERRQKRIEEIQMLFQ
no binding |  | ScRad5 R187E/R229E/R241E (Sc3RE), yeast two-hybrid fusion (protein, UniProt P32849 1-1169) MSHIEQEERKRFFNDDLDTSETSLNFKSENKESFLFANSHNDDDDDVVVSVSDTTEGEGDRSIVPVRREIEEEGQNQFITELLRIIPEMPKDLVMELNEKFGSQEEGLSLALSHYFDHNSGTSISKIPSSPNQLNTLSDTSNSTLSPSSFHPKRRRIYGFRNQTRLEDKVTWKRFIGALQVTGMATEPTVRPLKYGSQMKLKRSSEEISATKVYDSRGRKKASMASLVEIFDIQYDREIGEVSEDIAQILYPLLSSHEISFEVTLIFCDNKRLSIGDSFILQLDCFLTSLIFEERNDGESLMKRRRTEGGNKREKDNGNFGRTLTETDEELESRSKRLALLKLFDKLRLKPILDEQKALEKHKIELNSDPEIIDLDNDEICSNQVTEVHNNLRDTQHEEETMNLNQLKTFYKAAQSSESLKSLPETEPSRDVFKLELRNYQKQGLTWMLRREQEFAKAASDGEASETGANMINPLWKQFKWPNDMSWAAQNLQQDHVNVEDGIFFYANLHSGEFSLAKPILKTMIKGGILSDEMGLGKTVAAYSLVLSCPHDSDVVDKKLFDIENTAVSDNLPSTWQDNKKPYASKTTLIVVPMSLLTQWSNEFTKANNSPDMYHEVYYGGNVSSLKTLLTKTKTPPTVVLTTYGIVQNEWTKHSKGRMTDEDVNISSGLFSVNFYRIIIDEGHNIRNRTTVTSKAVMALQGKCKWVLTGTPIINRLDDLYSLVKFLELDPWRQINYWKTFVSTPFESKNYKQAFDVVNAILEPVLLRRTKQMKDKDGKPLVELPPKEVVIKRLPFSKSQDLLYKFLLDKAEVSVKSGIARGDLLKKYSTILVHILRLRQVCCHPGLIGSQDENDEDLSKNNKLVTEQTVELDSLMRVVSERFDNSFSKEELDAMIQRLKVKYPDNKSFQSLECSICTTEPMDLDKALFTECGHSFCEKCLFEYIEFQNSKNLGLKCPNCRNQIDACRLLALVQTNSNSKNLEFKPYSPASKSSKITALLKELQLLQDSSAGEQVVIFSQFSTYLDILEKELTHTFSKDVAKIYKFDGRLSLKERTSVLADFAVKDYSRQKILLLSLKAGGVGLNLTCASHAYMMDPWWSPSMEDQAIDRLHRIGQTNSVKVMRFIIQDSIEEKMLRIQEKKRTIGEAMDTDEDERRKRRIEEIQMLFE
